These results are taken from publication PMC12362813.

Sequences of proteins named here, by UniProt entry; tags and fusion partners are left off. A change or cut given only in a name is not applied to a line headed by its entry.
UniProt Q86WV6: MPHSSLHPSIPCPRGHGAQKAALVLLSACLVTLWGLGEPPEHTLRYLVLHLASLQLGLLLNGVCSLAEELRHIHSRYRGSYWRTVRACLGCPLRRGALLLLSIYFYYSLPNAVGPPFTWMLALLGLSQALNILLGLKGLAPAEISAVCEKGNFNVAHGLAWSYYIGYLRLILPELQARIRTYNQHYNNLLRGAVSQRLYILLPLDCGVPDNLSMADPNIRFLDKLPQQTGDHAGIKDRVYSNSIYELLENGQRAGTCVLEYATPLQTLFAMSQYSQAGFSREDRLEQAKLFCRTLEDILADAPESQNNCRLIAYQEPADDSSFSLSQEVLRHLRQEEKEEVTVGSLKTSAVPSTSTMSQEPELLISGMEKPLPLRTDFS
UniProt O95816: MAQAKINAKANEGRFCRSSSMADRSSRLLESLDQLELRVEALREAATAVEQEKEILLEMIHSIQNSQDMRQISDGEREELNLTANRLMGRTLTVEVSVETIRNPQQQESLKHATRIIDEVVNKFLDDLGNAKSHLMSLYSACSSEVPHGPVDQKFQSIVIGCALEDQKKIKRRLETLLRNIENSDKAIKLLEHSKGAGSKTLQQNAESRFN
UniProt Q9UNE7: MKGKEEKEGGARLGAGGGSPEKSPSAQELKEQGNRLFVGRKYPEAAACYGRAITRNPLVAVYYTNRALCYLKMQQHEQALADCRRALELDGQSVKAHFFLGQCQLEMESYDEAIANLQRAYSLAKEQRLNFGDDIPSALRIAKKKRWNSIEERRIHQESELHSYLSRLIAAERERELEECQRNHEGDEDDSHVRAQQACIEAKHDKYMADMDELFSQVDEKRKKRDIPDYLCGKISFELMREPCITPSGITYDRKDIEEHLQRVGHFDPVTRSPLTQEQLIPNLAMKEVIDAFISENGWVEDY

These are yes or no findings as the source states them, for the method shown. A result given as binding can be weak or reduced; the word gives no strength.

The target of this experiment is GST-STING (UniProt Q86WV6). The experiment is described as follows: pull-down; GST pull-down: GST-STING incubated with His-BAG2 or His-STUB1 for 4 h at 4 °C, then glutathione-Sepharose beads for 3 h at 4 °C; eluted with SDS buffer; Western blot; both purified. (In western blotting, separated proteins are transferred to a membrane and probed.)

Turning to His-BAG2 (from UniProt O95816 1-211), the binding entry is given as “binds”. The entry for “His-STUB1 (from UniProt Q9UNE7 1-303) (enzyme)” is “binds”.
